Laboratory results as given in PubChem BioAssay AID540276 (National Center for Advancing Translational Sciences (NCATS), 2011).
About 5,400 (1.8%) of roughly 300,000 compounds were called active. This list was built around the results that the source calls inconclusive (neither active nor inactive); the mix of calls is not that of the screen. Calls follow the shape of the full dose curve; tested in HEK293 cells. Potencies of inconclusive entries are doubtful fits and often do not repeat.

Assay: qHTS for inhibitors of binding or entry into cells for Marburg Virus
Details: Marburg virus pseudotyped entry inhibition, cell reporter; series mostly up to 37.8 µM
Potency is read from the fitted curve at half-maximal effect.

Row | SMILES | Potency
1 | CC(C)NC(=S)N1CCn2c(nc3ccccc32)C1 | inconclusive: 2.51 µM [inhibitor, single point]
2 | O=C(Nc1ccc(F)cc1)c1ccc(Cn2cnnn2)cc1 | inactive
3 | COc1cc(C)ccc1OCCSc1nc2ccc(NC(=O)c3ccc(C)cc3)cc2s1 | inconclusive: 22.4 µM [activator, single point]
4 | CN(C)c1ccc(/C=C/c2cc[n+](C)cc2)cc1 | inconclusive: 35.5 µM [inhibitor, single point]
5 | Cc1ncsc1C(=O)N1N=C2/C(=C/c3ccccc3)CCCC2C1c1ccccc1 (stereo not drawn) | active: 11.2 µM
6 | CN1/C(=C\C(=O)c2oc3ccccc3c2N)C(C)(C)c2ccccc21 | inconclusive: 14.1 µM [inhibitor, single point]
7 | O=C(O)C(CO)N=Cc1c(O)c2ccccc2oc1=O (stereo not drawn) | inconclusive: 15.8 µM [inhibitor, single point]
8 | CN1C2CCC1CC(OC(c1ccccc1)c1ccccc1N)C2 (stereo not drawn) | active: 17.8 µM
9 | COc1ccc(C2/C(=C(\O)c3cccc(OC)c3)C(=O)C(=O)N2c2ccccn2)cc1 (stereo not drawn) | inactive
10 | COc1ccc(N2CC(C)Cn3c2nc2c3c(=O)n(Cc3ccc(F)cc3)c(=O)n2C)c(OC)c1 (stereo not drawn) | inconclusive: 0.316 µM [activator, partial curve, poor fit]
11 | CC(C)c1ccc(-c2nnc(N)s2)cc1 | inconclusive: 32.6 µM [inhibitor, single point]
12 | Nc1nonc1C(=O)NCCNCc1c(OCc2ccccc2F)ccc2ccccc12 | inconclusive: 10.3 µM [inhibitor, partial curve, poor fit]
13 | CCCCCCCCn1cnc2c(N)c(C)c(C)cc21 | inconclusive: 0.184 µM [activator, partial curve, poor fit]
14 | Cc1nc2cc(NC(=O)c3cccc(S(C)(=O)=O)c3)ccc2o1 | inactive
15 | COc1ccc(NC(=O)NC23CC4(C)CC(C)(CC(C)(C4)C2)C3)cc1OC | inconclusive: 16.4 µM [inhibitor, partial curve, poor fit]
16 | CCOc1cc(C(=O)NC)cc(Br)c1OC | inconclusive: 11.2 µM [activator, partial curve, poor fit]
17 | C=CCNC(=S)N(Cc1ccccc1)Cc1ccc(F)cc1 | inconclusive: 35.5 µM [inhibitor, single point]
18 | O=C(OCC(=O)N1CCN(C(=O)c2ccco2)CC1)c1cc(-c2ccc(F)cc2)nc2ccccc12 | inconclusive: 7.3 µM [inhibitor, partial curve]
19 | NC(=O)c1c(NC(=O)c2cccs2)sc2c1CCCCCC2 | inconclusive: 29.1 µM [inhibitor, single point]
20 | CCN(CC)C(=O)Oc1ccc2c(c1)O/C(=C\c1ccco1)C2=O | inconclusive: 10 µM [activator, partial curve, poor fit]
21 | CNC(=O)c1ccc(Nc2nnc(-c3ccc(C(N)=O)cc3)c3ccccc23)cc1 | inconclusive: 1.12 µM [inhibitor, full curve, poor fit]
22 | Cc1cc(C(=O)CSc2n[nH]c(N)n2)c(C)n1-c1ccccc1 | inactive
23 | CCS(=O)(=O)Nc1ccc(-c2nnc(SCC(=O)OC)o2)cc1 | inconclusive: 0.1 µM [inhibitor, full curve, poor fit]
24 | CC1(C)CC(=O)C(N=Nc2ccc(C(F)(F)F)cc2[N+](=O)[O-])=C(O)C1 | inactive
25 | CCc1ccc(-c2cc(C)no2)cc1S(=O)(=O)Nc1ccccn1 | inactive

4 of these compounds, reformatted.

| Row | SMILES | Potency |
| --- | --- | --- |
| 3 | COc1cc(C)ccc1OCCSc1nc2ccc(NC(=O)c3ccc(C)cc3)cc2s1 | inconclusive: 22.4 µM [activator, single point] |
| 4 | CN(C)c1ccc(/C=C/c2cc[n+](C)cc2)cc1 | inconclusive: 35.5 µM [inhibitor, single point] |
| 5 | Cc1ncsc1C(=O)N1N=C2/C(=C/c3ccccc3)CCCC2C1c1ccccc1 (stereo not drawn) | active: 11.2 µM |
| 6 | CN1/C(=C\C(=O)c2oc3ccccc3c2N)C(C)(C)c2ccccc21 | inconclusive: 14.1 µM [inhibitor, single point] |

Next compounds:

Row | SMILES | Potency
26 | O=C(C[n+]1cc2ccccc2c2ccccc21)c1ccccc1 | inconclusive: 8.91 µM [inhibitor, partial curve]
27 | COc1ccccc1-n1c(SCc2cc(=O)oc3cc(O)ccc23)nc2ccccc2c1=O | inconclusive: 3.55 µM [inhibitor, single point]
28 | O=C(C=Cc1ccccn1)c1ccccc1 | inconclusive: 35.5 µM [inhibitor, partial curve, poor fit]
29 | COc1ccccc1N(C)S(=O)(=O)c1ccc(C(=O)NC2=NCCS2)cc1 | inactive
30 | O=C(/C=C/c1ccoc1)c1ccccc1O | inactive
31 | Cc1cc(NCc2ccccn2)n2nc(C)c(-c3ccccc3)c2n1 | active: 10 µM
32 | COc1ccc(N(CC(=O)Nc2cc(Cl)ccc2C)S(=O)(=O)c2c(C)noc2C)cc1 | inconclusive: 3.16 µM [inhibitor, single point]
33 | CCOc1ccc(NS(=O)(=O)c2ccc3[nH]cc(C(=O)N4CCCCCC4)c(=O)c3c2)cc1 | inactive
34 | CN(CCCCCCCCC(=O)/C=N/O)Cc1ccccc1 | inconclusive: 7.3 µM [inhibitor, partial curve, poor fit]
35 | CCOC(=O)c1ccc(N2C(=O)Cc3cc(OCC)c(OCC)cc3C2c2ccccc2)cc1 (stereo not drawn) | inconclusive: 35.5 µM [inhibitor, single point]
36 | CCn1c(=O)c(=O)[nH]c2cc(C(=O)NC3CCCc4ccccc43)ccc21 (stereo not drawn) | active: 20.6 µM
37 | Cc1ccc(Oc2cnn(-c3ccccc3)c(=O)c2Br)cc1 | inactive
38 | O=C(N=C1SC2CS(=O)(=O)CC2N1Cc1ccc(Cl)cc1)C1CC1 (stereo not drawn) | inactive
39 | COc1cc(C(=O)NC2CCN(CC(=O)NC3CCCCC3)CC2)cc(OC)c1OC | inconclusive: 35.5 µM [activator, single point]
40 | O=c1c(-c2nnc(SCc3ccc(Cl)c(Cl)c3)o2)cccn1Cc1ccccc1 | inconclusive: 35.5 µM [inhibitor, single point]
41 | Cc1csc2c(N3CCN(C(=O)Nc4ccc(OC(F)(F)F)cc4)CC3)ncnc12 | inconclusive: 12.6 µM [inhibitor, partial curve, poor fit]
42 | N#Cc1c(N2CCOCC2)nc(N)c2c(N)nc3c(c12)CC(CCl)O3 (stereo not drawn) | inactive
43 | CC(C)Sc1nc(N)nc(-c2cccs2)c1C#N | inconclusive: 3.16 µM [activator, partial curve, poor fit]
44 | O=C(Nc1ccc(C(=O)NCc2ccccc2Cl)cc1)C1=CSCCO1 | inconclusive: 0.562 µM [activator, partial curve, poor fit]
45 | Nc1nnc2cc(Cl)ccc2n1 | inconclusive: 2.82 µM [activator, partial curve, poor fit]
46 | CC1CCCC(NC(=O)CSc2ncccc2C(=O)O)C1C (stereo not drawn) | inconclusive: 3.16 µM [inhibitor, single point]
47 | Cc1nn(Cc2ccc(Cl)cc2Cl)c(C)c1NC(=O)c1sc2ccccc2c1Cl | inactive
48 | Cc1[nH]n(-c2ccccc2)c(=O)c1/C=C1/C=c2ccccc2=N1 | inconclusive: 12.6 µM [inhibitor, single point]
49 | CCc1sc(C(=O)Nc2ncccc2C)cc1C | inactive
50 | O=C(Nc1ccccc1)c1cccc(N2C(=O)CCC2=O)c1 | inconclusive: 17.8 µM [activator, single point]

Row | SMILES | Potency
51 | CC(C)(C)NC(=S)NNC(=O)c1ccncc1 | inconclusive: 5.62 µM [inhibitor, single point]
52 | COc1ccc(CNC(=O)CN2C(=O)CSc3ccc(S(=O)(=O)N4CCCCC4)cc32)cc1 | inactive
53 | O=c1[nH]c(C(F)(F)F)nc2ccc3ccccc3c12 | inconclusive: 35.5 µM [inhibitor, single point]
54 | Cc1ccnc(NC2(C(F)(F)F)N=C3SCCN3C2=O)c1 (stereo not drawn) | inconclusive: 0.316 µM [activator, partial curve, poor fit]
55 | COc1ccccc1NS(=O)(=O)c1cccc(NC(=O)Cc2cccs2)c1 | inactive
56 | COc1cccc(NC(=O)c2ccc3[nH]c(C)cc(=O)c3c2)c1 | inconclusive: 14.1 µM [inhibitor, partial curve, poor fit]
57 | Cc1ccc(C(=O)/C=C/NCc2ccc(F)cc2)cc1 | inactive
58 | COc1ccc(S(=O)(=O)Nc2cc3c(cc2N2CCOCC2)n(C)c(=O)n3C)cc1 | inactive
59 | COc1ccc(Cn2nnnc2C(c2ccc(F)cc2)N2CCN(C3CCCC3)CC2)cc1 (stereo not drawn) | active: 10 µM
60 | Nc1nnc(SCC(=O)Nc2ccc(N3CCOCC3)c(Cl)c2)s1 | inactive
61 | CSc1nc(O)c(C(c2ccc(OC(C)C)cc2)c2c(O)nc(SC)[nH]c2=O)c(=O)[nH]1 | inactive
62 | O=C(Nc1cccc(C(=O)N2CCCCCC2)c1)c1ccco1 | inactive
63 | COc1cc2c(cc1OC)C(c1cc(Br)ccc1O)N(C(C)=O)CC2 (stereo not drawn) | inactive
64 | CCCc1cc(=O)oc2cc(C)c3c(C(C)(C)C)coc3c12 | inconclusive: 0.316 µM [activator, full curve, poor fit]
65 | CC1Cc2ccccc2N1C(=O)CSc1nc2ccccc2n1CC(=O)N1CCOCC1 (stereo not drawn) | inconclusive: 7.3 µM [inhibitor, partial curve, poor fit]
66 | O=C(N/N=C/C=C/c1ccccc1)c1cc2c(ccc3ccccc32)o1 | active: 4.47 µM
67 | Cc1ccc(S(=O)(=O)N2CCCN(C(=O)c3ccc(-n4nccc4C)cc3)CC2)cc1 | inactive
68 | COc1ccc(-c2noc(-c3ccc(NC4CCCCC4)c([N+](=O)[O-])c3)n2)cc1 | inactive
69 | OC(CN1CCN(c2ccccc2)CC1)c1c[nH]c2ccccc12 (stereo not drawn) | inactive
70 | O=C(CSC(=S)N1CCCCC1)c1ccccc1 | inconclusive: 1 µM [inhibitor, full curve, poor fit]
71 | CCOC(=O)C1CCCN(C/C=C/c2ccccc2)C1 (stereo not drawn) | inactive
72 | CCn1c(SC(C)C(=O)N2CCOCC2)nc2sc(C)c(C)c2c1=O (stereo not drawn) | inconclusive: 8.91 µM [activator, partial curve, poor fit]
73 | COc1nc(-c2ccc(Cl)cc2)ccc1-c1noc(-c2cccs2)n1 | inconclusive: 29.1 µM [inhibitor, single point]
